Results on three molecules are retold here after paper PMC8429977, “Phosphorylation of slit diaphragm proteins NEPHRIN and NEPH1 upon binding of HGF promotes podocyte repair” (The Journal of Biological Chemistry, 2021).

The chains behind the UniProt entries cited, without tags or fusion partners. Residues count along the entry.
UniProt P14210, residues 32-728: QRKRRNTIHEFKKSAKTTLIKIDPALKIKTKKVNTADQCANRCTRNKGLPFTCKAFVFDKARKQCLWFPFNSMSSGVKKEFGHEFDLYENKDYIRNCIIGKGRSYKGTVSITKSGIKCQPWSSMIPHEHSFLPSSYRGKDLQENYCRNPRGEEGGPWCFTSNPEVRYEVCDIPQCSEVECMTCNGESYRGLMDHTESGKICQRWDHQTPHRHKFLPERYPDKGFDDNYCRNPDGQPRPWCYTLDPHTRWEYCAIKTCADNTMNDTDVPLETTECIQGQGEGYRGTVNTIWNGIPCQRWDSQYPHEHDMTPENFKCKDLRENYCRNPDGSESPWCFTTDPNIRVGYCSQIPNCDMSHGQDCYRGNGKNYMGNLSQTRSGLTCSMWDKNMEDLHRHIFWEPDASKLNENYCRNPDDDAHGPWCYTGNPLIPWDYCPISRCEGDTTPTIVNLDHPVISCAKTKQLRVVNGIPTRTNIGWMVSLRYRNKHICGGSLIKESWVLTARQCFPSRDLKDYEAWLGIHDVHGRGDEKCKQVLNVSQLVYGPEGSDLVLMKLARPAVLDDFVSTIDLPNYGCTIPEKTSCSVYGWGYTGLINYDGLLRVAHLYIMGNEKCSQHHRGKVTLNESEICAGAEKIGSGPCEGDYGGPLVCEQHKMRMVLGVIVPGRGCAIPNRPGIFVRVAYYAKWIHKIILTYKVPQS

The target in one assay is T1, NEPHRIN Peptide-2.
T1 sequence (peptide): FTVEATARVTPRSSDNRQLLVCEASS
The assay can be described thus: condition: 300 ng peptide spotted; 1 μg recombinant purified HGF; far-Western, overlay or dot blot; 300 ng peptide spotted on nitrocellulose, blocked with fat-free milk, incubated with 1 μg recombinant purified HGF in 5% BSA in PBS at 4 °C, detected with anti-HGF antibody; both purified.

For assay [1], the target named is HGF-FLAG expressed in HEK293 cells (UniProt P14210). The assay can be described thus: co-IP; HEK 293T cells stably expressing FLAG-NEPH1 or FLAG-NEPHRIN transfected with HGF plasmid; RIPA lysate; anti-HGF antibody and protein G agarose, 4 °C; Western blot with FLAG antibody. A general note: Immunoblotting shows a protein as a band on a membrane.

No constants are given. Whether binding was seen depends on the method and setting. For part of these data: In cells and extracts the contact can be indirect. Some entries that bind do so weakly or less than the wild type. For part of these data: Tags and fused reporters may be left off the sequences shown.

“purified human recombinant HGF (from UniProt P14210 32-728) (ligand)”: in the assay with NEPHRIN Peptide-2, the binding result is “no binding”.

B1: FLAG-tagged full-length NEPH1 (protein, UniProt Q80W68 48-789)
chain: LPGTQTRFSQEPADQTVVAGQRAVLPCVLLNYSGIVQWTKDGLALGMGQGLKAWPRYRVVGSADAGQYNLEITDAELSDDASYECQATEAALRSRRAKLTVLIPPEETRIDGGPVILLQAGTPYNLTCRAFNAKPAATIIWFRDGTQQEGAVTSTELLKDGKRETTISQLLIEPTDLDIGRVFTCRSMNEAIPNGKETSIELDVHHPPTVTLSIEPQTVLEGERVIFTCQATANPEILGYRWAKGGFLIEDAHESRYETNVDYSFFTEPVSCEVYNKVGSTNVSTLVNVHFAPRIVVYPKPTTTDIGSDVTLTCVWVGNPPLTLTWTKKDSNMVLSNSNQLLLKSVTQADAGTYTCRAIVPRIGVAEREVPLYVNGPPIISSEAVQFAVRGDGGKVECFIGSTPPPDRIAWAWKENFLEVGTLERYTVERTNSGSGVLSTLTINNVMEADFQTHYNCTAWNSFGPGTAIIQLEEREVLPVGIIAGATIGAGILVVFSFAALVFFLYRRRKGSRKDVTLRKLDIKVETVNREPLTMHSDREDDTASISTATRVMKAIYSSFKDDVDLKQDLRCDTIDTREEYEMKDPTNGYYNVRAHEDRPSSRAVLYADYRAPGPTRFDGRPSSRLSHSSGYAQLNTYSRAPASDYGTEPTPSGPSAPGGTDTTSQLSYENYEKFNSHPFPGAAGYPTYRLGYPQAPPSGLERTPYEAYDPIGKYATATRFSYTSQHSDYGQRFQQRMQTHV
Consider B1, for which the binding entry in assay [1] was “binds”.

B2: FLAG-tagged full-length NEPHRIN (protein, UniProt Q9QZS7 37-1256)
chain: QSPVPTSAPRGFWALSENLTVVEGSTVKLWCGVRAPGSVVQWAKDGLLLGPNPKIPGFPRYSLEGDSAKGEFHLLIEACDLSDDAEYECQVGRSELGPELVSPSVILSILVSPKVLQLTPEAGSTVTWVAGQEYVVTCVSGDAKPAPDIIFIQGGRTVEDVSSSVNEGSEEKLFFTEAEARVTPQSSDNGQLLVCEGSNPALATPIKASFTMNILFPPGPPVIDWPGLNEGHVRAGENLELPCIARGGNPPATLQWLKNGKPVSIAWGTEHAQAVAHSVLVMTVRPEDHGARLSCQSYNSVSAETQERSITLQVTFPPSAVTILGSTSQSENKNVTLCCLTKSSRPRVLLRWWLGGRQLLPTDETVMDGLHGGHISMSNLTLLVKREDNGLSLTCEAFSDAFSKETFKKSLTLNVKYPAQKLWIEGPPEGQSIRTGTRVRLVCLAIGGNPEPSLTWLKDSRPVNDPRQSQEPRRVQLGSVEKSGSTFSRELVLIIGPPDNLAKFSCKAGQLSASTQLVVQFPPTNLTILANSSALRPGDALNLTCVSISSNPPVNLSLDKEGERLDDVAAKPQSAPFKGSAASRSVFLRVSSRDHGHRVTCRAHSEALRETVSSFYRLNVLYPPEFLGEQVRAVTVVEQGQALLPVSVSANPAPEAFNWTFRGYRLSPAGGPRHRILSGGALQLWNVTRADDGFYQLHCQNSEGTAEALLKLDVHYAPTIRALKDPTEVNVGGSVDIVCTVDANPILPEMFSWERLGEDEEELNLDDMEKMSKGSTGRLRIRQAKLSQAGAYQCIVDNGVAPAARGLVRLVVRFAPQVDHPTPLTKVAAAGDSTSSATLHCRARGVPNIDFTWTKNGVPLDLQDPRYTEHKYHQGVVHSSLLTIANVSAAQDYALFKCTATNALGSDHTNIQLVSISRPDPPLGLKVVSVSPHSVGLEWKPGFDGGLPQRFQIRYEALESPGFLYMDVLPAQATTFTLTGLKPSTRYRIWLLASNALGDSGLTDKGIQVSITTPGLDQAPEDTDQPLPTEQPPGPPRLPLLPVLFAVGGLLLLSNASCVGGLLWRRRLRRLAEEISEKTEAGSEEDRIRNEYEESQWTGDRDTRSSTVSTAEVDPHYYSMRDFSPQLPPTLEEVSYRQAFTGIEDEDMAFPGHLYDEVERVYGPPGVWGPLYDEVQMDPYDLRWPEVKYEDPRGIYDQVAADMDAGEPGSLPFELRGHLV
Regarding B2, the binding result in assay [1] was “binds”.
